Reference: paper PMC7648202
No constants are given. Whether binding was seen depends on the method and setting. Binding calls can cover weak binding; strength is not graded here. Tags and fused reporters may be left off the sequences shown. For some assays here: In cells and extracts the contact can be indirect. One block for each substance: values may come before it.

Assays:
[1] = target: T1, nYFP::TCMP‐2 (rBiFC, pBiFCt‐2in1) (tomato (Solanum lycopersicum)) (UniProt P14903); experiment: split reporter; ratiometric BiFC (pBiFCt-2in1, mRFP as reference) in agroinfiltrated N. tabacum epidermal cells; complemented YFP vs. RFP ratio, seven independent cells for each combination
T1 sequence: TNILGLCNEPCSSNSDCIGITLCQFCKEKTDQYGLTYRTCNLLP

[2] = target: T2, TCMP‐2::nYFP (rBiFC, pBiFCt‐2in1) (tomato (Solanum lycopersicum)) (UniProt P14903); experiment: as above
T2 sequence: T1 sequence

[3] = target: T3, mature TCMP‐2 protein fused to the GAL4 DNA‐binding domain (pGBKT7‐BD) (tomato (Solanum lycopersicum)) (UniProt P14903); experiment: two-hybrid; Matchmaker Gold system; bait GAL4 BD fusion in Y2H Gold, prey AD fusions in Y187, mated; 30°C for 3 days; selection on SD/-Leu/-Trp/-His/-Ade/X-Gal/Aureobasidin A plus 10 mM 3-AT
T3 sequence: T1 sequence

[4] = target: T4, mature TCMP‐2 fused with the N‐terminus of YFP (nYFP), pCAMBIA1300 (tomato (Solanum lycopersicum)) (UniProt P14903); experiment: split reporter; BiFC with nYFP and cYFP fusions (pCAMBIA1300), transient co-infiltration of Nicotiana tabacum leaves; confocal microscopy 36-48 hr later
T4 sequence: T1 sequence

- binding [1]: binds weakly
- binding [2]: binds weakly
Substance: BBX16::cYFP (rBiFC, pBiFCt‐2in1) (tomato (Solanum lycopersicum))

- binding [3]: binds
Substance: SlBBX16 full‐length ORF fused to the Gal4‐activation domain (pGADT7‐AD) (tomato (Solanum lycopersicum))

- binding [3]: no binding
Substance: SlCO1 full‐length ORF fused to the Gal4 activation domain (pGADT7‐AD) (tomato (Solanum lycopersicum))

- binding [4]: binds
Substance: SlBBX16 fused with the C‐terminus of YFP (cYFP), pCAMBIA1300 (tomato (Solanum lycopersicum))
